This assay deals with CD2F1 mice, L1210 leukemia ip, survival T/C. Briefly: NCI In Vivo Anticancer Drug Screen. Data for tumor model L1210 Leukemia (intraperitoneal) in CD2F1 (CDF1) mice. The conditions noted are these: higher T/C = longer survival. In short, it runs like this: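 In this screen, transplantable tumors were grown in mice given either the compound or its vehicle. Results were expressed as the treated measurement relative to the control measurement.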

The mark [1] stands for this setting: T/C endpoint: median survival time, dose: 50.0 mg/kg/injection, schedule: Q01DX009 (ip), vehicle: saline.
Setting [2] is: T/C endpoint: mean survival time, dose: 400.0 mg/kg/injection, schedule: Q01DX009 (ip), vehicle: saline with Tween-80.
Where [3] appears, read: T/C endpoint: mean survival time, dose: 100.0 mg/kg/injection, schedule: Q04DX002 (ip), vehicle: saline with Tween-80.
Setting [4] is: T/C endpoint: mean survival time, dose: 200.0 mg/kg/injection, schedule: Q04DX003 (ip), vehicle: saline with Tween-80.
[5] abbreviates: T/C endpoint: mean survival time, dose: 400.0 mg/kg/injection, schedule: Q04DX003 (ip), vehicle: saline with Tween-80.
Where [6] appears, read: T/C endpoint: mean survival time, dose: 100.0 mg/kg/injection, schedule: Q01DX009 (ip), vehicle: saline.
[7] abbreviates: T/C endpoint: mean survival time, dose: 200.0 mg/kg/injection, schedule: Q01DX009 (ip), vehicle: Klucel (hydroxypropylcellulose) (HPC).
[8] abbreviates: T/C endpoint: mean survival time, dose: 400.0 mg/kg/injection, schedule: Q04DX003 (ip), vehicle: saline.
[9] abbreviates: T/C endpoint: mean survival time, dose: 400.0 mg/kg/injection, schedule: Q01DX001 (ip), vehicle: saline.

The list shows only some results of the screen, not a fair sample: it gathers tests that were run many times, whatever their T/C, doses with no T/C, and many T/C values between a quarter and a half above the control. Other doses and runs of a compound stand elsewhere. T/C is the treated group as % of the vehicle group. Some entries give survivors of the animals treated and no T/C: the source holds a T/C of zero for them, seemingly a mark for toxic or unscored doses. Some survivor counts are full or nearly so, which does not show that the dose was tolerated: the source hardly ever lists a survival T/C far under the control, and the zero likely stands for such cases as well. Survivors were counted at the toxicity check, usually on the fifth day, unless a day is given; later deaths do not show. Schedules are NCI's codes, taken here to give the interval after Q, in days (D) or hours (H), and the number of doses after X. Some entries were tested several times; the values are given in rising order. Where survival is the endpoint, the PubChem record calls one and a half times the control and up active, and a quarter to a half above the control has no call in these data; cut-offs in other NCI protocols can differ. Marks such as (2×) stand for listed records that agree. Some T/C values are followed by the survivors on the day toxicity was checked, most often the fifth; without a count, all were alive then.

On to `Brc1c(NC2=NCCN2)ccc2nccnc12`, for which the T/C is, setting by setting: (T/C endpoint: median survival time, dose: 12.5 mg/kg/injection, schedule: Q01DX009 (ip), vehicle: saline) 103, 112, 116, 120 % of control (2×); (T/C endpoint: median survival time, dose: 25.0 mg/kg/injection, schedule: Q01DX009 (ip), vehicle: saline) 100 [5 of 6 alive], 119 [9 of 10 alive], 120 [5 of 6 alive], 130 % of control; under setting [1], 98 [5 of 6 alive], 130 [5 of 6 alive], 137 % of control. Besides, the survivor count reads like this: under setting [1], 5 of 10; (T/C endpoint: median survival time, dose: 100.0 mg/kg/injection, schedule: Q01DX009 (ip), vehicle: saline) 3 of 10 and 2 of 6; (T/C endpoint: median survival time, dose: 200.0 mg/kg/injection, schedule: Q01DX009 (ip), vehicle: saline) 2 of 10.
Turning to `COC(=O)C(C(=O)OC)C(Br)(C(=O)OC)C(=O)OC`, the survivor count under setting [2] is on record as 6 of 6.
Turning to `C=C[CH2][Sn]([CH2]C=C)([CH2]CCC)[CH2]CCC`, the survivor count is, setting by setting: (T/C endpoint: mean survival time, dose: 25.0 mg/kg/injection, schedule: Q04DX002 (ip), vehicle: saline with Tween-80) 0 of 3; (T/C endpoint: mean survival time, dose: 50.0 mg/kg/injection, schedule: Q04DX002 (ip), vehicle: saline with Tween-80) 0 of 3; under setting [3], 0 of 3.
In the case of `O=C(O)c1nnc(C(=O)O)nn1`, the survivor count by setting is: (T/C endpoint: mean survival time, dose: 200.0 mg/kg/injection, schedule: Q01DX009 (ip), vehicle: water) 1 of 6; (T/C endpoint: mean survival time, dose: 400.0 mg/kg/injection, schedule: Q01DX009 (ip), vehicle: water) 0 of 6.
Turning to `COP(=O)(OC)OCC1OC(n2ccc(N)nc2=O)C(O)C1O` (stereo not given), the T/C (T/C endpoint: median survival time, dose: 200.0 mg/kg/injection, schedule: Q01DX005 (ip), vehicle: saline) was 129 % of control and the T/C (T/C endpoint: median survival time, dose: 400.0 mg/kg/injection, schedule: Q01DX005 (ip), vehicle: saline) is 129 % of control.
Consider `CC(=O)c1c(C)c2c(C)cc3oc(=O)c(C(C)=O)c(C)c3c2oc1=O`, for which the survivor count under setting [3] is recorded as 3 of 3.
For the molecule `CCc1c2c(nc3ccc(OC(=O)N4CCC(N5CCCCC5)CC4)cc13)-c1cc3c(c(=O)n1C2)COC(=O)[C@]3(O)CC`, the survivor count (T/C endpoint: median survival time, dose: 133.4 mg/kg/injection, schedule: Q04DX002 (ip), vehicle: water) was 3 of 6; the survivor count (T/C endpoint: median survival time, dose: 133.4 mg/kg/injection, schedule: Q04HX004 (iv), vehicle: water) is given as 0 of 10; the survivor count (T/C endpoint: median survival time, dose: 200.0 mg/kg/injection, schedule: Q04DX002 (ip), vehicle: water) is 0 of 6.
Take `Cn1cnc2c(SCc3ccccc3)ncnc21`: the T/C was 126 % of control under setting [4] and 140 % of control under setting [5].
`CCN(CC)CCOc1ccc2c(c1)C(=O)c1cc(OCCN(CC)CC)ccc1-2`: under setting [6], the survivor count is reported as 3 of 6.
Consider `COc1ccc(C(=O)/C=N/O)cc1`, for which the survivor count is 2 of 6 under setting [4] and 0 of 6 under setting [5].
Take `CSc1nnnn1-c1ccccc1`: under setting [7], the survivor count is on record as 0 of 6.
For the molecule `O=C1C(=O)c2ccccc2C(O)=C1CCCc1ccc(OCc2ccccc2)cc1`, the survivor count is, setting by setting: (T/C endpoint: mean survival time, dose: 50.0 mg/kg/injection, schedule: Q01DX009 (ip), vehicle: saline) 6 of 6; under setting [6], 4 of 6; (T/C endpoint: mean survival time, dose: 200.0 mg/kg/injection, schedule: Q01DX009 (ip), vehicle: saline) 5 of 6; under setting [8], 6 of 6.
For the molecule `CCC1(O)C(=O)OCc2c1cc1n(c2=O)Cc2cc3cc4c(cc3nc2-1)OCO4` (stereo not given), the survivor count (T/C endpoint: median survival time, dose: 8.0 mg/kg/injection, schedule: Q01DX005 (ip), vehicle: saline with Tween-80) is on record as 6 of 6; the survivor count (T/C endpoint: median survival time, dose: 16.0 mg/kg/injection, schedule: Q01DX005 (ip), vehicle: saline with Tween-80) is recorded as 6 of 6; the survivor count (T/C endpoint: median survival time, dose: 32.0 mg/kg/injection, schedule: Q04DX002 (ip), vehicle: saline with Tween-80) is on record as 5 of 6.
Consider `[O-][n+]1c(CN2CCCCC2)nc2cccc3c2c1-c1ccccc1-3`, for which the survivor count under setting [2] is 3 of 6.
Take `O=S1(=O)C=CCCC=C1`: under setting [7], the survivor count is listed as 0 of 6.
For `O=C(O)C(O)C(O)C(OC1OC(CO)C(O)C(O)C1O)C(O)CO.[Br][Pt].[NH-]C1CCCCC1[NH-]` (stereo not given), the T/C by setting is: (T/C endpoint: median survival time, dose: 6.25 mg/kg/injection, schedule: Q04DX003 (ip), vehicle: saline) 130 % of control; (T/C endpoint: median survival time, dose: 12.5 mg/kg/injection, schedule: Q04DX003 (ip), vehicle: saline) 141 % of control. Moreover, the survivor count (T/C endpoint: median survival time, dose: 100.0 mg/kg/injection, schedule: Q04DX003 (ip), vehicle: saline) is 1 of 6 and 4 of 6.
As to `COC(=O)c1nc2ccccc2cc1C#N`, under setting [9], the survivor count is 3 of 6.
`BrCc1ccccc1C[P+](c1ccccc1)(c1ccccc1)c1ccccc1`: the survivor count by setting is: (T/C endpoint: mean survival time, dose: 12.5 mg/kg/injection, schedule: Q01DX009 (ip), vehicle: saline sonified) 3 of 6; (T/C endpoint: mean survival time, dose: 25.0 mg/kg/injection, schedule: Q01DX009 (ip), vehicle: saline sonified) 3 of 6; (T/C endpoint: mean survival time, dose: 50.0 mg/kg/injection, schedule: Q04DX003 (ip), vehicle: saline sonified) 1 of 6; (T/C endpoint: mean survival time, dose: 100.0 mg/kg/injection, schedule: Q04DX003 (ip), vehicle: saline sonified) 0 of 6.
Consider `[N-]=[N+]=NCc1cn(C2CC(O)C(CO)O2)c(=O)[nH]c1=O` (stereo not given), for which the survivor count (T/C endpoint: mean survival time, dose: 100.0 mg/kg/injection, schedule: Q01DX005 (ip), vehicle: water) was 1 of 3.
Take `O=P(O)(O)OCC(O)CCl` (stereo not given): the survivor count (T/C endpoint: mean survival time, dose: 400.0 mg/kg/injection, schedule: Q01DX009 (ip), vehicle: saline) was 6 of 6.
For the molecule `CCO/N=C(\C)CSC1=NCCN1`, the survivor count (T/C endpoint: mean survival time, dose: 300.0 mg/kg/injection, schedule: Q04DX003 (ip), vehicle: saline) is reported as 1 of 6.
Consider `O=C(OCC1OC(n2cnc3c(=S)nc[nH]c32)C(OC(=O)c2ccc([N+](=O)[O-])cc2)C1OC(=O)c1ccc([N+](=O)[O-])cc1)c1ccc([N+](=O)[O-])cc1` (stereo not given), for which the survivor count by setting is: (T/C endpoint: mean survival time, dose: 200.0 mg/kg/injection, schedule: Q01DX009 (ip), vehicle: saline with Tween-80) 5 of 6; (T/C endpoint: mean survival time, dose: 300.0 mg/kg/injection, schedule: Q01DX009 (ip), vehicle: saline with Tween-80) 2 of 6.
In the case of `O=C(C[n+]1cccc(C(=O)NCc2ccccc2)c1)Nc1ccc(Cl)cc1`, the survivor count is given as 1 of 6 (T/C endpoint: mean survival time, dose: 200.0 mg/kg/injection, schedule: Q04DX003 (ip), vehicle: saline) and 0 of 6 under setting [8].
Regarding `CCC(C(C)N1CC(=O)NC(=O)C1)N1CC(=O)NC(=O)C1` (stereo not given), the T/C by setting is: (T/C endpoint: mean survival time, dose: 0.25 mg/kg/injection, schedule: Q01DX009 (ip), vehicle: Klucel (hydroxypropylcellulose) (HPC)) 142 % of control; (T/C endpoint: mean survival time, dose: 0.5 mg/kg/injection, schedule: Q01DX009 (ip), vehicle: Klucel (hydroxypropylcellulose) (HPC)) 139 % of control. Also, the survivor count is, setting by setting: (T/C endpoint: mean survival time, dose: 4.0 mg/kg/injection, schedule: Q01DX009 (ip), vehicle: Klucel (hydroxypropylcellulose) (HPC)) 10 of 10; (T/C endpoint: mean survival time, dose: 8.0 mg/kg/injection, schedule: Q01DX009 (ip), vehicle: Klucel (hydroxypropylcellulose) (HPC)) 7 of 10; (T/C endpoint: mean survival time, dose: 16.0 mg/kg/injection, schedule: Q04DX003 (ip), vehicle: Klucel (hydroxypropylcellulose) (HPC)) 8 of 10; (T/C endpoint: mean survival time, dose: 32.0 mg/kg/injection, schedule: Q04DX003 (ip), vehicle: Klucel (hydroxypropylcellulose) (HPC)) 1 of 10; (T/C endpoint: mean survival time, dose: 64.0 mg/kg/injection, schedule: Q04DX003 (ip), vehicle: Klucel (hydroxypropylcellulose) (HPC)) 4 of 10.
As for `CC1CCc2ccccc2N1CCN` (stereo not given), the survivor count reads like this: (T/C endpoint: mean survival time, dose: 200.0 mg/kg/injection, schedule: Q04DX003 (ip), vehicle: Klucel (hydroxypropylcellulose) (HPC)) 1 of 6; (T/C endpoint: mean survival time, dose: 400.0 mg/kg/injection, schedule: Q04DX003 (ip), vehicle: Klucel (hydroxypropylcellulose) (HPC)) 1 of 6.
With `Nn1cnnc1`, the survivor count under setting [9] is 1 of 6.
For `c1ccc(-c2cc(-c3cc(-c4ccccc4)on3)no2)cc1`, the survivor count (T/C endpoint: mean survival time, dose: 400.0 mg/kg/injection, schedule: Q01DX001 (ip), vehicle: saline with Tween-80) is on record as 0 of 6.
For `C/C(=C\Cl)CN(C)C`, the survivor count (T/C endpoint: mean survival time, dose: 200.0 mg/kg/injection, schedule: Q01DX009 (ip), vehicle: acetone) is 1 of 6.

The values above are taken from PubChem BioAssay AID256 (DTP/NCI, 2004).
